{"source": "patent US9168317B2", "about": "“In vivo imaging method of mood disorders” (GE Healthcare Limited, priority 2010, dated 2015)", "assay": "In vivo biodistribution method", "note": "The structures given here were assigned with low confidence; some may be wrong.", "data": [{"smiles": "CCN(CC)C(=O)C1CC(C)Cc2c1c1ccccc1n2CCF", "note": "(stereo not drawn)", "values": [{"measurement": "Brain 2 min", "setting": "adult male Wistar rats, 1-3 MBq via lateral tail vein, brain, 2 min after injection", "value": 0.51, "unit": "% ID/g"}, {"measurement": "OB 30 min", "setting": "adult male Wistar rats, 1-3 MBq via lateral tail vein, olfactory bulb, 30 min after injection", "value": 0.42, "unit": "% ID/g"}, {"measurement": "OB:Str 30 min", "setting": "ratio olfactory bulb:striatum, 30 min after injection, Wistar rats", "value": 3.50}]}]}
